Measurements taken from paper PMC12639696.
These are yes or no findings as the source states them, for the method shown. Binding seen in cells or lysates may run through a third protein. Some results given as binding are weak or reduced against the parent protein; the word gives no strength.

Protein sequences, listed by entry. Tags and fused reporters are not part of them.
UniProt Q80YE7: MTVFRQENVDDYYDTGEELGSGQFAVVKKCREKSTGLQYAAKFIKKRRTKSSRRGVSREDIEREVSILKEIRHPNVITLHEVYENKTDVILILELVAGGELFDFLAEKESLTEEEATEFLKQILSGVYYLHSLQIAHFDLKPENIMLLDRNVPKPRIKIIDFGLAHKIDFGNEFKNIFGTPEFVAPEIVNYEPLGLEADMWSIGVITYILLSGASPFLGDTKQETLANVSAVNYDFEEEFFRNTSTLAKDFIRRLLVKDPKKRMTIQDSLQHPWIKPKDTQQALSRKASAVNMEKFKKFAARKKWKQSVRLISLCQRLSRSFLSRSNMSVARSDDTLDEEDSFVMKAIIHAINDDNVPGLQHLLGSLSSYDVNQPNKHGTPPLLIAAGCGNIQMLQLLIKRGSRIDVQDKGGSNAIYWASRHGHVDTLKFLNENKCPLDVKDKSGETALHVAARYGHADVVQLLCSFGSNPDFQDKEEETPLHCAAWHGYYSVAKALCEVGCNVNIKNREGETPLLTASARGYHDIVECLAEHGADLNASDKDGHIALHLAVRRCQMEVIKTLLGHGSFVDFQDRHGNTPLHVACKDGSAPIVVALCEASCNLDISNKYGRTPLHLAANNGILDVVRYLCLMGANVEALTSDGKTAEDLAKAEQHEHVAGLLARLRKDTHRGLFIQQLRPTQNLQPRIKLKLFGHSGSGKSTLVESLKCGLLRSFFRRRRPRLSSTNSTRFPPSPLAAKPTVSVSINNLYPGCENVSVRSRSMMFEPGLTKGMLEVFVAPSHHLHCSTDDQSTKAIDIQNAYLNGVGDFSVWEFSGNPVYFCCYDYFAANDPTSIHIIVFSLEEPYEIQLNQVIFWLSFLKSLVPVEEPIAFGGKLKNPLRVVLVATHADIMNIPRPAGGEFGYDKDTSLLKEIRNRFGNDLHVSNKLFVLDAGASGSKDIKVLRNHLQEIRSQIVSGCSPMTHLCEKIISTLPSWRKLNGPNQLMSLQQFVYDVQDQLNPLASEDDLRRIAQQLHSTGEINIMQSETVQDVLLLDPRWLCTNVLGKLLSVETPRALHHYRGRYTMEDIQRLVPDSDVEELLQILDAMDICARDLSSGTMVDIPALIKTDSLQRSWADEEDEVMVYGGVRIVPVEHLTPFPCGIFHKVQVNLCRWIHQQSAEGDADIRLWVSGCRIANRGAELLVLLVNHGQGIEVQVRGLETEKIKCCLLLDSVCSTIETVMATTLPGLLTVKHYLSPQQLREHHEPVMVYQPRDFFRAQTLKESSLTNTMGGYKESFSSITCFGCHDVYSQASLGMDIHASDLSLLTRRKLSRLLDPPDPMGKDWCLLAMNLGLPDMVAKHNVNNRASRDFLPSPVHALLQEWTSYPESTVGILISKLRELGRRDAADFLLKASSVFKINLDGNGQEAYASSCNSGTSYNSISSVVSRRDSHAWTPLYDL

Columns and labels:
[1] = target: T1, endogenous SENP1 (N2a cells and mouse brain) (mouse (endogenous in N2a and mouse brain)) (UniProt P59110); assay: co-IP; endogenous proteins in mouse brain tissue; indicated antibodies, protein A/G agarose; immunoblot
T1 sequence: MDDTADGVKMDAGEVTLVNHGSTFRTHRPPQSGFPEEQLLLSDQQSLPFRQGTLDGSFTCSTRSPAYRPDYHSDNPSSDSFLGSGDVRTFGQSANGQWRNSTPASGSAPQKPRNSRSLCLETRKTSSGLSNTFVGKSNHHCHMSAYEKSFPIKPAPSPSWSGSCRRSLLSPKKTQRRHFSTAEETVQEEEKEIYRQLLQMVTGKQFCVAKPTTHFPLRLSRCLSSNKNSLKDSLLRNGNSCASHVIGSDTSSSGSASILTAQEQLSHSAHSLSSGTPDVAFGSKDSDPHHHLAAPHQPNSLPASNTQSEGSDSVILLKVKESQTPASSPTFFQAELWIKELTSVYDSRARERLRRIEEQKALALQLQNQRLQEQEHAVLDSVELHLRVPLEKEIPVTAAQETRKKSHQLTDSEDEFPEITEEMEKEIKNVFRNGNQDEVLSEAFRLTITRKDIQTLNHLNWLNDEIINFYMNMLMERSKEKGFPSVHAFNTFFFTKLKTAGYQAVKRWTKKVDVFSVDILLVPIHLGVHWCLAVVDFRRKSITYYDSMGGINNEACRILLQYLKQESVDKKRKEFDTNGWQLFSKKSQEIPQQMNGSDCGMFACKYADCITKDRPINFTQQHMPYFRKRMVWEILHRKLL

[2] = target: T1, endogenous SENP1 (N2a cells and mouse brain) (mouse (endogenous in N2a and mouse brain)); assay: co-IP; endogenous proteins in N2a cell lysate; indicated antibodies, protein A/G agarose, NP-40 lysis buffer; immunoblot

binding [1]: binds | binding [2]: binds
Substance: endogenous DAPK1 (N2a cells and mouse brain) (from UniProt Q80YE7 1-1442) (enzyme)
